US20170190744A1 (Vicuron Pharmaceuticals, Inc., priority 2015, published 2017)

Tested on: N,N′-diacetyl-Lys-D-Ala-D-Ala
Experiment: Isothermal titration calorimetry of tri-peptide binding, with/without HSA

Compound `CN[C@H](CC(C)C)C(=O)N[C@H]1C(=O)N[C@@H](CC(N)=O)C(=O)N[C@H]2C(=O)N[C@H]3C(=O)N[C@H](C(=O)N[C@H](C(=O)O)c4cc(O)cc(O)c4-c4cc3ccc4O)[C@H](O)c3ccc(c(Cl)c3)Oc3cc2cc(c3O[C@@H]2O[C@H](CO)[C@@H](O)[C@H](O)[C@H]2O[C@H]2C[C@](C)(N)[C@H](O)[C@H](C)O2)Oc2ccc(cc2Cl)[C@H]1O` [Vancomycin, vancomycin, reference compound] has a ΔH (T 10 °C, [HSA] 0 μM) of -9.49 kcal/mol, a ΔS (T 10 °C, [HSA] 0 μM) of −6.80 eu and a ΔH (T 25 °C, with HSA 513 μM) of -10.09 kcal/mol. The ΔS (T 25 °C, with HSA 513 μM) was −8.80 eu.
